Values from PubChem BioAssay AID602196 (INSERM, 2012).

- Screen: 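Modifiers of cisplatin sensitivity in A549 cells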
- System: human A549 lung cancer cells
- Reagent: siRNA pair against human genes
- Time to read-out: 48 h transfection before cisplatin; time from cisplatin to read-out not stated
- Conditions: cisplatin at a dose killing half of control-siRNA cells; exact dose and duration not given
- Detection: 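Cisplatin cell death as a shift from the 50% death seen with control siRNA; siRNAs toxic or growth-blocking alone scored 0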
- Direction: two-siRNA summed score (-2 to +2): higher = both siRNAs protect from cisplatin killing; -2 means both sensitise; mean protection from cisplatin (shift in death) and protection from cisplatin (shift in death), siRNA C and protection from cisplatin (shift in death), siRNA D: higher = protection from cisplatin killing
- Hit rule: 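siRNAs harmful alone (LDH or WST-1) get 0; others get +1 for less and -1 for more cisplatin killing; genes are active when the two siRNAs give the same sign, summing to ±2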
- Calls: active = both siRNAs shift cisplatin killing the same way; inactive = no consistent shift, or siRNA harmful alone
In all, the deposit lists about 23,000 reagents; shown is an unselected part. 455 of them (2%) count as active. 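Active includes both protection and sensitisation; some change values fall well beyond the stated -50 to +50 range.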 Not stated in the record: the amount of reagent.

gene knocked down | two-siRNA summed score (-2 to +2) | mean protection from cisplatin (shift in death) (%) | protection from cisplatin (shift in death), siRNA C (%) | protection from cisplatin (shift in death), siRNA D (%) | Outcome
LOC92755 | 0 | 12.5 | 5.6 | 19.4 | inactive
LOC387937 | 0 | -1.1 | 4.1 | -6.2 | inactive
AP3B1 | 0 | -2.9 | -5 | -0.8 | inactive
LIME1 | 0 | 12.7 | 11.2 | 14.2 | inactive
LOC390256 | 1 | 6.1 | 6.8 | 5.4 | inactive
HDHD5 | 0 | 3.4 | 5.6 | 1.2 | inactive
TEX101 | -1 | -12 | -13.2 | -10.8 | inactive
C5AR1 | -1 | -12.1 | 4.5 | -28.7 | inactive
MPV17 | 1 | 18.7 | 39.1 | -1.8 | inactive
ELOVL5 | 0 | 3.1 | -0.3 | 6.5 | inactive
BIRC2 | 0 | -0.6 | -2.6 | 1.4 | inactive
S100A5 | 1 | 3.1 | -12.7 | 18.8 | inactive
LOC401225 | 0 | 3.8 | 12 | -4.5 | inactive
F11 | 1 | 13.1 | 12.8 | 13.5 | inactive
IFIH1 | 0 | 7 | 7.7 | 6.3 | inactive
LINC01148 | 0 | 3.2 | -1 | 7.5 | inactive
LOC442127 | 0 | 0.9 | -0.8 | 2.5 | inactive
YAP1 | 0 | -5.5 | -13.4 | 2.4 | inactive
PIGP | 0 | 4.1 | 0 | 8.3 | inactive
DKFZP586K1520 (retired record) | 1 | 8.1 | 16.2 | -0.1 | inactive
LOC442432 | 0 | 8 | 10.4 | 5.6 | inactive
EIF3H | 0 | 6.5 | 5.7 | 7.2 | inactive
ING2-DT | 1 | 20.2 | 14.3 | 26.1 | inactive

4 entries already listed, ordered by “mean protection from cisplatin (shift in death) (%)”, highest first:
gene knocked down | two-siRNA summed score (-2 to +2) | mean protection from cisplatin (shift in death) (%) | protection from cisplatin (shift in death), siRNA C (%) | protection from cisplatin (shift in death), siRNA D (%) | Outcome
LOC401225 | 0 | 3.8 | 12 | -4.5 | inactive
ELOVL5 | 0 | 3.1 | -0.3 | 6.5 | inactive
S100A5 | 1 | 3.1 | -12.7 | 18.8 | inactive
BIRC2 | 0 | -0.6 | -2.6 | 1.4 | inactive
